The experiment addresses YopN-GSK (Y. pestis) (UniProt P68640). Kind of experiment: cross-linking + co-IP.

Chains of the proteins cited; added tags and fusions are not shown.
UniProt P68640: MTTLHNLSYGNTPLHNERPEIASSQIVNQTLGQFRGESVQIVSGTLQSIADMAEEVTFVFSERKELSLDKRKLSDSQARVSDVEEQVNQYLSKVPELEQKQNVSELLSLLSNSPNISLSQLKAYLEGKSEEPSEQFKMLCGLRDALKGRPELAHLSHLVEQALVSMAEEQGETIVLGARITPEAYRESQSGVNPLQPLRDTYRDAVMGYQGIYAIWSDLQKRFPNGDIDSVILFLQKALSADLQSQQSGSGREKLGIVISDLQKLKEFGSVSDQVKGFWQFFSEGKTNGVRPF
UniProt P69968: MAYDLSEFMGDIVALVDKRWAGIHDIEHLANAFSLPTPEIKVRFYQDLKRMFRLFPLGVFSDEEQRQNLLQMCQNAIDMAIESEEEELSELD

These are yes or no findings as the source states them, for the method shown. Binding seen in cells or lysates may run through a third protein. Some entries that bind do so weakly or less than the wild type.

As for TyeA (from UniProt P69968 1-92), the binding entry is on record as “binds”.

(Values after article PMC3553376.)
